No constants are given. Whether binding was seen depends on the method and setting. Binding seen in cells or lysates may run through a third protein. Sequences can lack the tags named with a protein.

The target in this test is Flag-CHIP deletion construct lacking the CC domain (human (cloned from SHSY5Y cDNA)). In words: co-IP; HEK293T co-transfected with an HA-tagged and a Flag-tagged protein; whole cell lysate in low-salt lysis buffer (50 mM Hepes pH 7.5, 150 mM NaCl, 1% Triton X-100) on anti-Flag agarose overnight at 4 °C, six washes, immunoblot. In general terms: A western blot detects proteins with antibodies after separation by electrophoresis.

B1: HA-TAK1 (protein, UniProt O43318 1-606)
chain: MSTASAASSSSSSSAGEMIEAPSQVLNFEEIDYKEIEVEEVVGRGAFGVVCKAKWRAKDVAIKQIESESERKAFIVELRQLSRVNHPNIVKLYGACLNPVCLVMEYAEGGSLYNVLHGAEPLPYYTAAHAMSWCLQCSQGVAYLHSMQPKALIHRDLKPPNLLLVAGGTVLKICDFGTACDIQTHMTNNKGSAAWMAPEVFEGSNYSEKCDVFSWGIILWEVITRRKPFDEIGGPAFRIMWAVHNGTRPPLIKNLPKPIESLMTRCWSKDPSQRPSMEEIVKIMTHLMRYFPGADEPLQYPCQYSDEGQSNSATSTGSFMDIASTNTSNKSDTNMEQVPATNDTIKRLESKLLKNQAKQQSESGRLSLGASRGSSVESLPPTSEGKRMSADMSEIEARIAATTAYSKPKRGHRKTASFGNILDVPEIVISGNGQPRRRSIQDLTVTGTEPGQVSSRSSSPSVRMITTSGPTSEKPTRSHPWTPDDSTDTNGSDNSIPMAYLTLDHQLQPLAPCPNSKESMAVFEQHCKMAQEYMKVQTEIALLLQRKQELVAELDQDEKDQQNTSRLVQEHKKLLDENKSLSTYYQQCKKQLEVIRSQQQKRQGTS
B1: the binding entry was “no binding”.
